Data on one molecule can be found in PMC8206348.

Chains of the proteins cited; added tags and fusions are not shown.
UniProt Q9Y5U2: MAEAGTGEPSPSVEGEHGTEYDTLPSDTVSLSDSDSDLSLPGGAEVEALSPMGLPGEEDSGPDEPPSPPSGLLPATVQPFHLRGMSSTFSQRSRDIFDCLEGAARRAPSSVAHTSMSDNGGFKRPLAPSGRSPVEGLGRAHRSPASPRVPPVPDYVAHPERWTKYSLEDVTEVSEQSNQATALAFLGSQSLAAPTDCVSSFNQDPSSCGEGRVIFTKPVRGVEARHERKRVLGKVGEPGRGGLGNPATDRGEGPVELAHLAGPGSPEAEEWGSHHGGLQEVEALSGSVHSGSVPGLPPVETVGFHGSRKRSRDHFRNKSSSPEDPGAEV

These are yes or no findings as the source states them, for the method shown. Binding seen in cells or lysates may run through a third protein. Some binding calls cover weakened binding; strength is not graded here.

This assay has as its target TSSC4-GFP (human) (UniProt Q9Y5U2). Description: co-IP; anti-GFP or anti-FLAG antibodies pre-bound to agarose beads, overnight at 4 °C; lysates of transfected HeLa cells in NET2 buffer (50 mM Tris-HCl pH 7.4, 150 mM NaCl, 0.05% Nonidet P-40); western blot; also from RNase A treated lysates (Fig. 1d). Background: In western blotting, separated proteins are transferred to a membrane and probed.

B1: TXNL4A (protein, UniProt P83876 1-142)
chain: MSYMLPHLHNGWQVDQAILSEEDRVVVIRFGHDWDPTCMKMDEVLYSIAEKVKNFAVIYLVDITEVPDFNKMYELYDPCTVMFFFRNKHIMIDLGTGNNNKINWAMEDKQEMVDIIETVYRGARKGRGLVVSPKDYSTKYRY
On to B1, for which the binding entry is recorded as “binds”.
